Measurements reported in PubChem BioAssay AID1671195 (Yale University, 2021)
Here is one part, drawn at random, of about 22,000 reagents tested. Over the whole deposit, about 1,510 (6.9%) were called active. 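Active includes knockdowns raising or lowering LDL uptake; positive z-scores mean more uptake, negative mean less.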 The numbers tell different reagents against one gene apart. No sequences are given here.

Purpose: 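Regulators of LDL receptor activity judged by labelled LDL uptake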 (primary screen)
Cells: human Huh7 hepatoma cells
Reagents: siRNA pool against human genes, 18 nM
Timing: about 2 to 2.5 days of knockdown, then 8 h LDL uptake
Treatment: DiI-labelled LDL at 30 µg/ml for 8 h, in lipoprotein-deficient serum medium
Read-out: 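Fluorescent LDL signal imaged in cells, scaled to the plate median, robust z-score for each replicate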
Scale: robust z-score: higher = more LDL uptake after knockdown
Rule for the call: 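a gene counts as active if at least two replicate z-scores exceed ±2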

Target gene	pool no.	robust z-score, replicate 1	robust z-score, replicate 2	robust z-score, replicate 3	outcome
MELK (maternal embryonic leucine zipper kinase)	1	0.286	0.702	0.181	inactive
POU2AF2 (POU class 2 homeobox associating factor 2)	1	1.04	1.14	1.28	inactive
AGO1 (argonaute RISC component 1)	1	2.54	2.17	2.58	active
WRAP73 (WD repeat containing, antisense to TP73)	1	1.23	-1.25	-0.0776	inactive
TMEM50A (transmembrane protein 50A)	1	-0.199	0.927	-1.79	inactive
NPPC (natriuretic peptide C)	1	-0.295	-0.786	-1.77	inactive
SHROOM4 (shroom family member 4)	1	-0.245	-1.15	-1.43	inactive
LOC440096 (retired record)	1	1.07	1.88	1.33	inactive
CACHD1 (cache domain containing 1)	1	0.999	0.805	2.74	inactive
YTHDC1 (YTH N6-methyladenosine RNA binding protein C1)	1	-0.391	-0.341	-0.674	inactive
LOC441167 (retired record)	1	-0.287	-0.982	-0.539	inactive
PLAC9 (placenta associated 9)	1	0.696	0.362	0.695	inactive
TRIM39 (tripartite motif containing 39)	1	0.276	0.148	0.734	inactive
MAP3K6 (mitogen-activated protein kinase kinase kinase 6)	1	-0.533	-0.629	-0.829	inactive
GLUL (glutamate-ammonia ligase)	1	2.35	2.45	1.94	active
TST (thiosulfate sulfurtransferase)	1	-1.92	-1.49	-1.07	inactive
HRH3 (histamine receptor H3)	1	-1	-1.56	-1.34	inactive
PEX19 (peroxisomal biogenesis factor 19)	1	-0.232	-0.425	-0.433	inactive
CCL7 (C-C motif chemokine ligand 7)	1	-1.17	-1.21	-0.785	inactive
ST6GALNAC4 (ST6 N-acetylgalactosaminide alpha-2,6-sialyltransferase 4)	1	-0.367	-0.675	-0.106	inactive
MBD3 (methyl-CpG binding domain protein 3)	1	-0.197	0.179	0.371	inactive
DDX23 (DEAD-box helicase 23)	1	0.542	-1.3	-1.68	inactive
RRH (retinal pigment epithelium-derived rhodopsin homolog)	1	1.3	0.843	1.2	inactive
CMSS1 (cms1 ribosomal small subunit homolog)	1	-1.04	-1.19	-1.7	inactive
ELMO2 (engulfment and cell motility 2)	1	7.54	5.72	7.68	active
PFDN1 (prefoldin subunit 1)	1	1.92	1.63	1.77	inactive
DIRAS1 (DIRAS family GTPase 1)	1	-1.31	-1.21	-1.35	inactive
CHD2 (chromodomain helicase DNA binding protein 2)	1	-1.04	-1.36	-1.29	inactive
LOC219414 (retired record)	1	2.27	2.06	2.12	active
OR52D1 (olfactory receptor family 52 subfamily D member 1)	1	-0.424	-0.11	-0.23	inactive
NHLRC1 (NHL repeat containing E3 ubiquitin protein ligase 1)	1	0.946	-0.0813	1	inactive
CASP16P (caspase 16, pseudogene)	1	0.0823	-0.813	-0.319	inactive
PAPOLB (poly(A) polymerase beta)	1	-0.801	-1.31	-0.616	inactive
SNRNP27 (small nuclear ribonucleoprotein U4/U6.U5 subunit 27)	1	-0.94	-0.11	-0.101	inactive
UBL3 (ubiquitin like 3)	1	-1.03	1.01	-1.27	inactive
ACKR3 (atypical chemokine receptor 3)	1	-1.1	-0.98	-1.1	inactive
FHL1 (four and a half LIM domains 1)	1	0.0275	-0.508	-0.611	inactive
CALR (calreticulin)	1	0.186	-0.158	0.147	inactive
ZFP42 (ZFP42 zinc finger protein)	1	-1.09	-0.968	-1.86	inactive
SHOC1 (shortage in chiasmata 1)	1	0.298	-0.236	-0.118	inactive
CCDC13 (coiled-coil domain containing 13)	1	-0.435	0.0501	0.672	inactive
DERL1 (derlin 1)	1	-0.658	0.43	-0.224	inactive
THAP5P1 (THAP domain containing 5 pseudogene 1)	1	1.1	1.12	1.2	inactive
CD68 (CD68 molecule)	1	-0.296	0.548	-0.514	inactive
ITGA7 (integrin subunit alpha 7)	1	0.662	-1.12	-1.15	inactive
SLC35E1	1	-0.726	-1.37	-1.08	inactive
H4C8 (H4 clustered histone 8)	1	1.34	1.96	1.57	inactive
RPL23A (ribosomal protein L23a)	1	-0.54	-0.829	-0.33	inactive
CORIN (corin, serine peptidase)	1	0.712	0.953	1.08	inactive
FOSL2 (FOS like 2, AP-1 transcription factor subunit)	1	-0.747	-0.184	0.84	inactive
SCRT2 (scratch family transcriptional repressor 2)	1	-0.76	-0.976	-1.58	inactive
FOXG1 (forkhead box G1)	1	0.532	1.16	1.34	inactive
CRIP2 (cysteine rich protein 2)	1	-0.0972	0.29	0.246	inactive
CSMD3 (CUB and Sushi multiple domains 3)	1	-0.695	-2.13	-1.57	inactive
LOC440467 (retired record)	1	-1.12	-1.24	-1.48	inactive
AKR1E2 (aldo-keto reductase family 1 member E2)	1	-0.133	1.09	0.217	inactive
SSH3 (slingshot protein phosphatase 3)	1	0.0356	-0.588	-0.227	inactive
ANKRD31 (ankyrin repeat domain 31)	1	1.14	1.12	1.02	inactive
PDXK (pyridoxal kinase)	1	-0.193	0.0783	0.452	inactive
PDXK (pyridoxal kinase)	2	-1.95	-1.9	-1.83	inactive
DOHH (deoxyhypusine hydroxylase)	1	3.63	2.37	2.58	active
TOMM34 (translocase of outer mitochondrial membrane 34)	1	0.483	0.463	1.06	inactive
LOC440542 (retired record)	1	-0.912	-0.983	-0.417	inactive
MOB3B (MOB kinase activator 3B)	1	1.87	1.55	-0.168	inactive
SLC16A10	1	-0.227	-0.0589	-0.456	inactive
ARHGAP10 (Rho GTPase activating protein 10)	1	-2.17	-2.11	-1.99	active
RAD51 (RAD51 recombinase)	1	2.61	-2.39	2.98	active
GSX2 (GS homeobox 2)	1	-1.71	-0.999	-1.87	inactive
